Assay results from patent publication US20260174692A1, “AEROSOL COMPOSITION” (UPyTher B.V., priority 2023, published 2026).
For at least one compound, name, drawing or mass did not settle the structure.

Assay: In vitro release of TLR-agonists from hydrogel
Format: physicochemical
Conditions: 6 and 10 wt. % hydrogel formulations; PBS pH 7.4
Method: The TLR-agonist resiquimod (synonym R848) was loaded from a stock solution (50 mM in DMSO) to 1.27 mM in the hydrogel. The TLR-agonist telratolimod (synonym MEDI9197) was loaded from a stock solution (10 mM in DMSO) to 0.5 mM in the hydrogel.
The drug loaded solution (100 μL) was transferred to a Millicell insert, which was placed in a 24-wells plate filled with PBS pH 7.4 (700 μL). At set time points the PBS was refreshed and the removed PBS was analyzed for R848 content UV absorbance at 320 nm. For MEDI9197, PBS was substituted for a volatile ammonium carbonate buffer and a HPLC-MS method was used. Release experiments were performed with n=3.

Structure (SMILES): CCOCc1nc2c(N)nc3ccccc3c2n1CC(C)(C)O [Gel R848, resiquimod]
- time within which most of the drug is released: ≤ 24 h
